# Measurements as given in the supplement of paper PMC6411743.
# ± gives the standard deviation of the averaged measurements. The list shows a part of the results, in another mix than the full data.
# What was measured:
# Assay in all cases: NP40-soluble protein abundance relative to vehicle (solubility fold change) (ratio); higher = more soluble protein in presence of AMP-PNP
# PINX1 = biological target: T1, PINX1 (UniProt Q96BK5)
# T1 sequence (whole entry): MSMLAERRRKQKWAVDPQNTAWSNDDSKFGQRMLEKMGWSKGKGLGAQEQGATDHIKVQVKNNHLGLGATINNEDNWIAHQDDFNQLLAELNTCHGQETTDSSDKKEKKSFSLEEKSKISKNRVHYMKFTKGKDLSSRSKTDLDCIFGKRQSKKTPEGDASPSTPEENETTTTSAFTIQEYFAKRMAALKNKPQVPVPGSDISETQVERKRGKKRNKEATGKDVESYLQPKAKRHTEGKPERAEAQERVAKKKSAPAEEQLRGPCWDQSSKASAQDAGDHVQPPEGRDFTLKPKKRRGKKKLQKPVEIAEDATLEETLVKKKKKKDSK
# Summary of the method: (§1)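 Each value is a fold change relative to the detergent-processed vehicle, calculated per replicate from vsn-normalised intensities. Jurkat crude lysate received eight concentrations (0.1 to 10 mM) for 10 min at room temperature and 3 min at 37 °C, then was solubilised in 0.8% NP40 with benzonase (60 min, 4 °C). The ultracentrifuged supernatant was TMT-labelled and run by LC-MS/MS in three independent experiments.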
# RBM17 = biological target: T2, RBM17 (UniProt Q96I25)
# T2 sequence (whole entry): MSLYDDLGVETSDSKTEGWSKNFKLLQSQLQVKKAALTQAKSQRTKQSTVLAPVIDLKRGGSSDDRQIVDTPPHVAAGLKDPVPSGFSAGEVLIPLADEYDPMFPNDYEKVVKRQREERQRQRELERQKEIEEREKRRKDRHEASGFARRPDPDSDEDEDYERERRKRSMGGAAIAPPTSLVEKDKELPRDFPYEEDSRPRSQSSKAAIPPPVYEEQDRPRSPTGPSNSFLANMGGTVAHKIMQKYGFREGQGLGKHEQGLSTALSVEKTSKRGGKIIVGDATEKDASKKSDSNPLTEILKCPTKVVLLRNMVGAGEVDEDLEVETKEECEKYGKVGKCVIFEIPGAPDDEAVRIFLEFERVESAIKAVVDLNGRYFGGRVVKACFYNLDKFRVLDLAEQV
# Summary of the method: as §1
# RNF25 = biological target: T3, RNF25 (UniProt Q96BH1)
# T3 sequence (whole entry): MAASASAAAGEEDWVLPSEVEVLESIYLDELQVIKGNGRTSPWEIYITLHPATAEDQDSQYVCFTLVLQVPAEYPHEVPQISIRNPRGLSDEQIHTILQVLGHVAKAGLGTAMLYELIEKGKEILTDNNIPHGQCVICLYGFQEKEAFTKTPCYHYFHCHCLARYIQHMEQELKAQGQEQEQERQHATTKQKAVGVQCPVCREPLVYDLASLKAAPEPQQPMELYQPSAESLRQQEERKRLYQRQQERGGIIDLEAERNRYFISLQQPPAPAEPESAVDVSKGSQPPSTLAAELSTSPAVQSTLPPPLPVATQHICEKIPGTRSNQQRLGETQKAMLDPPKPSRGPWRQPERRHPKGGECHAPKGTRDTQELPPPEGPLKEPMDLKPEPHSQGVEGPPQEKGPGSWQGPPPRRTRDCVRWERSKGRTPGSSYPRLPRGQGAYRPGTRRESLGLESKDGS
# Summary of the method: as §1
# [1] = biological target: T4, UniProt Q969R2 and related entries
# T4 sequence (whole entry): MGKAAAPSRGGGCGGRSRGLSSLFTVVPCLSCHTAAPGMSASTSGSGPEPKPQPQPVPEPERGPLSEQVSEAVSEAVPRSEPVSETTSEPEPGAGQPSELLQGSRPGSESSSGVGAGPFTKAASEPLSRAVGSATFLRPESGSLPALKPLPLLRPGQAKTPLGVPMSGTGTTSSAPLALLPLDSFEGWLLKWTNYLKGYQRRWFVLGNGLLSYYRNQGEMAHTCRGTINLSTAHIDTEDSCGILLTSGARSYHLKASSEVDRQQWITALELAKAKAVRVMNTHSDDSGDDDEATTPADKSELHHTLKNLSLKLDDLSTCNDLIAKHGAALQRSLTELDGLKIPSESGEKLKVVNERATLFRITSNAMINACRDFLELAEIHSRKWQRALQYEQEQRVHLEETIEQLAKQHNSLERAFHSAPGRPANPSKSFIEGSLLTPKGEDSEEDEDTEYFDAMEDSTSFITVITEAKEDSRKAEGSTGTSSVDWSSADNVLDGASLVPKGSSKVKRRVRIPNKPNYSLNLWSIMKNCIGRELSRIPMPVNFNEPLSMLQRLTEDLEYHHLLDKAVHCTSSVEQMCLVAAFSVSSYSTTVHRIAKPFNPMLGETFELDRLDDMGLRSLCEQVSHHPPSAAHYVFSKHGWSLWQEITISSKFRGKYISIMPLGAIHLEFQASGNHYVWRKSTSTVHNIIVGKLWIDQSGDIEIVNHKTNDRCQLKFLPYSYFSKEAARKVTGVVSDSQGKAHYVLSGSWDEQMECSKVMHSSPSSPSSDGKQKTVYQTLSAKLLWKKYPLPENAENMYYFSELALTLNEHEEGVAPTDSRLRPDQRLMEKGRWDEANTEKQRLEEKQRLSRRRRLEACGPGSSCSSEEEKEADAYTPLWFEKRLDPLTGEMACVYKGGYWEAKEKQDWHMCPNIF
# Summary of the method: as §1
# [2] = biological target: T5, UniProt Q969V3 and related entries
# T5 sequence (whole entry): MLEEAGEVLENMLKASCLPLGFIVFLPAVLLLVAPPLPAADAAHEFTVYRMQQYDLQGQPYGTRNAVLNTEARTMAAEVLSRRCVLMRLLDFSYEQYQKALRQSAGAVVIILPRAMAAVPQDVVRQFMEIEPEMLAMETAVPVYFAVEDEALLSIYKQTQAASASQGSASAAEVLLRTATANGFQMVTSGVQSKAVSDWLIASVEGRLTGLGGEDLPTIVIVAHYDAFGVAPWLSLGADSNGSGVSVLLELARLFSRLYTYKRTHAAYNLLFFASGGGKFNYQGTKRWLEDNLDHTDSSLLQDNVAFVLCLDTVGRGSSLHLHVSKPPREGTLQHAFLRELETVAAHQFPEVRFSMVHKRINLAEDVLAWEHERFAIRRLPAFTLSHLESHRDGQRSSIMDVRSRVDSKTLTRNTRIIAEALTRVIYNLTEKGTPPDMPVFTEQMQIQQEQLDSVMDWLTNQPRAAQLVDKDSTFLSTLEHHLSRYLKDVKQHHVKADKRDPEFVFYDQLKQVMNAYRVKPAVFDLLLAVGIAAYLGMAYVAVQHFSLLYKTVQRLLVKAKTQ
# Summary of the method: as §1
structure (smiles),measurement,setting,value
Nc1ncnc2c1ncn2[C@@H]1O[C@H](COP(=O)(O)OP(=O)(O)NP(=O)(O)O)[C@@H](O)[C@H]1O [adenylyl imidodiphosphate],NP40-soluble protein abundance,PINX1; concentration: 1mM,1.15 ± 0.053
same,NP40-soluble protein abundance,PINX1; concentration: 2mM,1.27 ± 0.034
same,NP40-soluble protein abundance,PINX1; concentration: 4mM,1.36 ± 0.09
same,NP40-soluble protein abundance,PINX1; concentration: 6mM,1.51 ± 0.057
same,NP40-soluble protein abundance,PINX1; concentration: 8mM,1.59 ± 0.083
same,NP40-soluble protein abundance,PINX1; concentration: 10mM,1.8 ± 0.079
same,NP40-soluble protein abundance,RBM17; concentration: 1mM,1.06 ± 0.048
same,NP40-soluble protein abundance,RBM17; concentration: 2mM,1.1 ± 0.046
same,NP40-soluble protein abundance,RBM17; concentration: 4mM,1.09 ± 0.071
same,NP40-soluble protein abundance,RBM17; concentration: 6mM,1.2 ± 0.055
same,NP40-soluble protein abundance,RBM17; concentration: 8mM,1.18 ± 0.085
same,NP40-soluble protein abundance,RBM17; concentration: 10mM,1.24 ± 0.11
same,NP40-soluble protein abundance,RNF25; concentration: 1mM,0.984 ± 0.028
same,NP40-soluble protein abundance,RNF25; concentration: 2mM,0.969 ± 0.033
same,NP40-soluble protein abundance,RNF25; concentration: 4mM,0.9668 ± 0.0029
same,NP40-soluble protein abundance,RNF25; concentration: 6mM,0.988 ± 0.034
same,NP40-soluble protein abundance,RNF25; concentration: 8mM,0.987 ± 0.037
same,NP40-soluble protein abundance,RNF25; concentration: 10mM,0.988 ± 0.022
same,NP40-soluble protein abundance,[1]; concentration: 1mM,1.03 ± 0.035
same,NP40-soluble protein abundance,[1]; concentration: 2mM,0.988 ± 0.055
same,NP40-soluble protein abundance,[1]; concentration: 4mM,0.985 ± 0.038
same,NP40-soluble protein abundance,[1]; concentration: 6mM,0.961 ± 0.032
same,NP40-soluble protein abundance,[1]; concentration: 8mM,0.975 ± 0.021
same,NP40-soluble protein abundance,[1]; concentration: 10mM,0.914 ± 0.069
same,NP40-soluble protein abundance,[2]; concentration: 1mM,0.972 ± 0.026
same,NP40-soluble protein abundance,[2]; concentration: 2mM,0.929 ± 0.079
same,NP40-soluble protein abundance,[2]; concentration: 4mM,0.976 ± 0.018
same,NP40-soluble protein abundance,[2]; concentration: 6mM,0.959 ± 0.029
same,NP40-soluble protein abundance,[2]; concentration: 8mM,0.998 ± 0.016
same,NP40-soluble protein abundance,[2]; concentration: 10mM,0.972 ± 0.037

# Looked up one by one from the entries so far, two records:
structure (smiles),measurement,setting,value
Nc1ncnc2c1ncn2[C@@H]1O[C@H](COP(=O)(O)OP(=O)(O)NP(=O)(O)O)[C@@H](O)[C@H]1O [adenylyl imidodiphosphate],NP40-soluble protein abundance,[2]; concentration: 4mM,0.976 ± 0.018
same,NP40-soluble protein abundance,[2]; concentration: 2mM,0.929 ± 0.079
